Assay results reported in publication PMC2759284.
No constants are given. Whether binding was seen depends on the method and setting. Some binding calls cover weakened binding; strength is not graded here. Sequences can lack the tags named with a protein.

Amino acid sequences for entries named in this document (tags omitted). A change or cut given only in a name is not applied to a line headed by its entry.
UniProt Q9Y4B6, whole entry: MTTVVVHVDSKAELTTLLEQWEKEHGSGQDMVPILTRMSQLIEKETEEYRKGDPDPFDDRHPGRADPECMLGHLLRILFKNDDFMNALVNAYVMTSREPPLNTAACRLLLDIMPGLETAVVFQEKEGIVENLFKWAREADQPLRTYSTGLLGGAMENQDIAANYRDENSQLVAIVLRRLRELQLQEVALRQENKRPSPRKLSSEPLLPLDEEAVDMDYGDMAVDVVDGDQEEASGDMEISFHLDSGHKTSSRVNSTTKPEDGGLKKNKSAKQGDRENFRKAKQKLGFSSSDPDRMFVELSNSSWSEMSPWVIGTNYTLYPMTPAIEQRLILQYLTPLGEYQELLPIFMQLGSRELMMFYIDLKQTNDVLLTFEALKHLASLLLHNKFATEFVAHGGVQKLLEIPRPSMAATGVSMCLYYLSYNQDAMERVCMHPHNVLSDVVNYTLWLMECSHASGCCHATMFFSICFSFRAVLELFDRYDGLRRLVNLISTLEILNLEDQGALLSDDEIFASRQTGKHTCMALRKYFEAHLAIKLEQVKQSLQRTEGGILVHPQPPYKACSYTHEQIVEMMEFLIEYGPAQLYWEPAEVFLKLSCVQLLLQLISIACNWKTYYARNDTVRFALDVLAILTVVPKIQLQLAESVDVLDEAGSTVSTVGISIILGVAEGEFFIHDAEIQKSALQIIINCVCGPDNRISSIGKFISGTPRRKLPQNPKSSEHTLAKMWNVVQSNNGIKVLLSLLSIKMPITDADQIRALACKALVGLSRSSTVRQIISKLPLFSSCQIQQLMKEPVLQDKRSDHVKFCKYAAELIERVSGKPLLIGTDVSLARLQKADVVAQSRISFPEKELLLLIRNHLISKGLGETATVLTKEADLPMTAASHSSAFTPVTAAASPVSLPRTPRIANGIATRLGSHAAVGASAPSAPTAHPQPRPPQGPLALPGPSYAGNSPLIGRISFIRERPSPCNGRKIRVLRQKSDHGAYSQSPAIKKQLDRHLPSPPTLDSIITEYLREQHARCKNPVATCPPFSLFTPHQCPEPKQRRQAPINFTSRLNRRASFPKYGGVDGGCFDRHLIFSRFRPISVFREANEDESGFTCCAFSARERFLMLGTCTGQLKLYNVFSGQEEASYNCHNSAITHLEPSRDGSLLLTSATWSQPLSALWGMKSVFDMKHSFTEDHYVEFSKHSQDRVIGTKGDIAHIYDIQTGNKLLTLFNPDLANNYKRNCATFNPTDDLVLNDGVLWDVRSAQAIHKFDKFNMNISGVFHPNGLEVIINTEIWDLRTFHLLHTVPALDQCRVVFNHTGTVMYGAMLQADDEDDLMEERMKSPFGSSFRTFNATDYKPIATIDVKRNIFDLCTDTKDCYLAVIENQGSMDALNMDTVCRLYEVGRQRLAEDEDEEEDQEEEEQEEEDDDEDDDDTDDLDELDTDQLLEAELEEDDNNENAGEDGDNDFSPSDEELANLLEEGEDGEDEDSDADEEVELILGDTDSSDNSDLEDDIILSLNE

B1: nucleoporin hCG1, fused to the Gal4 activation domain (protein, UniProt O15504 1-423)
chain: MAICQFFLQGRCRFGDRCWNEHPGARGAGGGRQQPQQQPSGNNRRGWNTTSQRYSNVIQPSSFSKSTPWGGSRDQEKPYFSSFDSGASTNRKEGFGLSENPFASLSPDEQKDEKKLLEGIVKDMEVWESSGQWMFSVYSPVKKKPNISGFTDISPEELRLEYHNFLTSNNLQSYLNSVQRLINQWRNRVNELKSLNISTKVALLSDVKDGVNQAAPAFGFGSSQAATFMSPGFPVNNSSSDNAQNFSFKTNSGFAAASSGSPAGFGSSPAFGAAASTSSGISTSAPAFGFGKPEVTSAASFSFKSPAASSFGSPGFSGLPASLATGPVRAPVAPAFGGGSSVAGFGSPGSHSHTAFSKPSSDTFGNSSISTSLSASSSIIATDNVLFTPRDKLTVEELEQFQSKKFTLGKIPLKPPPLELLNV

What was measured:
[1] = target: HIV-1 Vpr of the prototypic HIV-1Lai, fused to LexA (HIV-1 (Lai)) (UniProt P05928); experiment: two-hybrid; L40 yeast reporter strain (HIS3 LexA-inducible); Vpr fused to LexA, hCG1, UNG2 or DCAF1 fused to the Gal4 activation domain; growth on medium without histidine
[2] = target: VprLai-R77Q, fused to LexA (HIV-1 (Lai)) (UniProt P05928); experiment: as above

Row | Molecule | binding [1] | binding [2]
1 | UNG2, nuclear form of the DNA repair enzyme, fused to the Gal4 activation domain (from UniProt P13051-1 1-313) | binds | binds
2 | DCAF1 subunit of the Cul4a/DDB1 E3 ubiquitin ligase, fused to the Gal4 activation domain (from UniProt Q9Y4B6 1-1507) | – | binds
3 | B1 | binds | binds
